We go through five molecules from article PMC10256725.

Chains of the proteins cited; added tags and fusions are not shown.
UniProt P39705: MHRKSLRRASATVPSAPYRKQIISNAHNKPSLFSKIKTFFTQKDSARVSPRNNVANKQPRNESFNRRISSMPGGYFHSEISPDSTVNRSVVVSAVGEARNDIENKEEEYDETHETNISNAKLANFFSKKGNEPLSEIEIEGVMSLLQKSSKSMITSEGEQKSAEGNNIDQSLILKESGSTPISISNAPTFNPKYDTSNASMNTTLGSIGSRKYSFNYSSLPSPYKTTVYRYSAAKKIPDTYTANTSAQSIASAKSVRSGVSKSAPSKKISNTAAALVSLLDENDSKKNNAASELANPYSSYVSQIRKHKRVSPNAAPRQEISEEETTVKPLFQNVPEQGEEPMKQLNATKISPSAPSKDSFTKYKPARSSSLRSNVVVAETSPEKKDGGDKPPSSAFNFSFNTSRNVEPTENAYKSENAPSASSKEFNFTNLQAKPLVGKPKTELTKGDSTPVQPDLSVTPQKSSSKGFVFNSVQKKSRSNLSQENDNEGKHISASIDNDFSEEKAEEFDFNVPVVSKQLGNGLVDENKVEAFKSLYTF
UniProt P02406: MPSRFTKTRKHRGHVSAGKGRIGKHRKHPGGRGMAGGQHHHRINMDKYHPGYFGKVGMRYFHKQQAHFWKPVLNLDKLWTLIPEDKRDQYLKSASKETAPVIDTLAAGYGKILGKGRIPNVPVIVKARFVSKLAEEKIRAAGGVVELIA

Assay [1] concerns the target T1, Kap123, C-terminally twin-StrepII-tagged (S. cerevisiae) (UniProt P40069).
T1 sequence: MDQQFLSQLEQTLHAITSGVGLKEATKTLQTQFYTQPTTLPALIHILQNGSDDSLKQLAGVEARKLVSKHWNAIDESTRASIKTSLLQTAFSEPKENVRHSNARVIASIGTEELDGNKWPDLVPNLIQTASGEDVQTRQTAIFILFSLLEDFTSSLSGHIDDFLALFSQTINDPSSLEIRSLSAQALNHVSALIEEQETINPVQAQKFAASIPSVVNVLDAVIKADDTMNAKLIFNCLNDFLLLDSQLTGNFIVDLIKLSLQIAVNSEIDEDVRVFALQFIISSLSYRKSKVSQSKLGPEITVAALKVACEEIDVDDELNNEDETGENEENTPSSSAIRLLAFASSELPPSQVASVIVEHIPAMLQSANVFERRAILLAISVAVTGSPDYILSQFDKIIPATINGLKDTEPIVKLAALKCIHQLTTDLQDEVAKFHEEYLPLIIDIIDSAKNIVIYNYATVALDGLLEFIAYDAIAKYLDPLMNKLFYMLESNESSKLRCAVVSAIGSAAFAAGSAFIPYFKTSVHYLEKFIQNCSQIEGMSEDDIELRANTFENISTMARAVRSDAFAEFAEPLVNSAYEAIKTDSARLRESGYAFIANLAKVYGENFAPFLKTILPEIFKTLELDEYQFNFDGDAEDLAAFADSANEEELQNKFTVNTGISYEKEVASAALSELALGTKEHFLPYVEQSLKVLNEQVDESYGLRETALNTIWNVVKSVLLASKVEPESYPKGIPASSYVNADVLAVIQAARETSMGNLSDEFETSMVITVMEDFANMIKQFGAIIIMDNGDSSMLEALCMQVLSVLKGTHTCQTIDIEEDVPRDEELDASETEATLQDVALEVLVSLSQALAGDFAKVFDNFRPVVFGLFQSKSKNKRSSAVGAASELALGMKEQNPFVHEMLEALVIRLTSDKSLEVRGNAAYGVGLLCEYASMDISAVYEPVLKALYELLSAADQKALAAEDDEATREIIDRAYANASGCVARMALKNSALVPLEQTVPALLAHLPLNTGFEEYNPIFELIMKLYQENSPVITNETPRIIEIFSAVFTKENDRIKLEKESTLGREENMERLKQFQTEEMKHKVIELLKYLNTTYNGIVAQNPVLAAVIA
Briefly: RIP-qPCR; high salt lysis buffer (500 mM KCl) with CHX or puromycin, DSP crosslinking; twin-StrepII Kap123 pulled down on Streptactin resin; co-purified mRNA quantified by TaqMan qPCR relative to total RNA. For orientation: Real-time PCR tracks product formation cycle by cycle.

In assay [2] the target is T1, Kap123, C-terminally twin-StrepII-tagged (S. cerevisiae). Briefly: selective ribosome profiling (SeRP); lysate crosslinked with DSP, RNase I digest, ribosome-nascent chain complexes pelleted through 25% sucrose; twin-StrepII importin purified on Streptactin resin (20 mM Hepes-KOH pH 7.5, 140 mM KCl, 10 mM MgCl2, CHX, 4 °C); ribosome-protected mRNA footprints sequenced, IP/total against a no-bait wildtype; n = 4.

Assay [3] has as its target T2, Sxm1, C-terminally twin-StrepII-tagged (S. cerevisiae) (UniProt Q04175).
T2 sequence: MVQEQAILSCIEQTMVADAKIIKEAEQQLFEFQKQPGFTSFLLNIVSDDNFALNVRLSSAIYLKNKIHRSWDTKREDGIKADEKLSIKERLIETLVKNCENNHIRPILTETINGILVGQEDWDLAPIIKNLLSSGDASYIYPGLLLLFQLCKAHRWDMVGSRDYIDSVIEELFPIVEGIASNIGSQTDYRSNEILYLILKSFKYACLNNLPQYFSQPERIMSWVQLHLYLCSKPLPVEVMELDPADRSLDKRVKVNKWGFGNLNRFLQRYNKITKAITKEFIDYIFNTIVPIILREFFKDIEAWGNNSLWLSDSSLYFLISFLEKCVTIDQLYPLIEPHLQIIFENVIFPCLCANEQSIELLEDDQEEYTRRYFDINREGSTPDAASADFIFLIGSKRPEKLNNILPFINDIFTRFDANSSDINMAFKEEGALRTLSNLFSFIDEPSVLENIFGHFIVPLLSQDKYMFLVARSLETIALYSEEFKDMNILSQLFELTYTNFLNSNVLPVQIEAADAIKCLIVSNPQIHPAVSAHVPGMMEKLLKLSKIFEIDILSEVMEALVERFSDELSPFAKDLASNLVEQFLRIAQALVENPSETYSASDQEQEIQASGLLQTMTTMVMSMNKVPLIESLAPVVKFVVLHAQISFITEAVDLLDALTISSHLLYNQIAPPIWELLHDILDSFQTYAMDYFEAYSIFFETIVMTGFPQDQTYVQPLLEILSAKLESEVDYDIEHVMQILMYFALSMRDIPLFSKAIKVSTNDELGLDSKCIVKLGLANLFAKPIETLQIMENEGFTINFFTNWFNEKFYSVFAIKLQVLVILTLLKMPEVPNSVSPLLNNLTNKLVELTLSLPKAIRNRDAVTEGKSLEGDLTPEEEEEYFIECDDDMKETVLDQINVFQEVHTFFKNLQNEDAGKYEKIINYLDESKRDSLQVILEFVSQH
The description is as above.

Results are given in words; binding and its absence hold for the method and conditions named. Some entries that bind do so weakly or less than the wild type. Sequences can lack the tags named with a protein.

As for “nascent Nup60 (ribosome-bound nascent chain) (from UniProt P39705 1-539)”, the binding entry in assay [1] and in assay [2] was “binds” each time.

As to “nascent Rpl28 (ribosome-bound nascent chain) (from UniProt P02406 1-149)”, the binding result in assay [2] is listed as “binds”.

B1: nascent Nbp1 (ribosome-bound nascent chain) (protein, UniProt P52919 1-319)
chain: MLKSVQGLWKDFFGIRDDGRKREYGSLDEVRKRSALRSRRKQMRPTGKSVLKRPRKVTDRKTEEKIRTNRRKTPKRRLTKIFQTIRDVFSNDNENMSKMQNVCGDMTRILKKRSQGRPSYMDTDTAKSRILRSDAFKRKISELKYNKQRISELRSGSSDGSSGKDRNQSLYLDREILLQRQIKKRDEKIKALESKLQSLQEALNYSNEKYRILEDLLDSSNIHPSYTKSRRTMSNLARENDEIKPLKIDLSPSPIRRTNSLFTSSPMKTYNRDGNIPEMQPLQENISPACPTPPYRSRETEKEDETLSPISVDFSSYLS
As for B1, the binding entry in assay [1] is recorded as “binds”.

B2: nascent Efr3 (ribosome-bound nascent chain) (protein, UniProt Q03653 1-782)
chain: MQLSMRMMFTPKHQKLVNQCYPTGRTTDKKPKSSETSYLLYYVNSRRSKLEKVSTYLIKRSTSDLNHRRIGNIAVTLDLMNKIVLHCKENLNVFVKDFLYIMNKVLSNNNFNNDVSVVELIELAFSSICQNLDDVLCNGDMEFVQLYQNFVDLFFKIVTERIHNDDMLLKCCIDISNTNSVSSNPQLNHFVSKSVAYTISKFQERNPKFKTLSLEAALESNLGKRLSRTQTRTIGLDKAAEDNHDLSVKALQSYFNTTETDKLNLSIRTLLRCLQSTPNKELLEFVCNGIPVQLRYIVILLLVRQLSDKDKNVNPIVSLKLMSSLLVSDVSIVGLSVLDIMRKLLNFQLKNATNKEVVAQSCITMTDLNHKTYYAEQTSDMLYELLLKLKSDTVKDVEKNAVVEDIDFLVEHITQPSISLELFIDLAHYMKNHIICLFNIVETEVPSSILFSKLYSLLRELDSHGVQKEMMEEIFDKYGKMALLSGLNYFLENVSEPEYTYYSYHLQAANFLKLNDYKSQTEYKMQTRTLFTKEDLLSYYSDTGSNKYSKKGAQILLSRDNQISTSDLLSDSQVRTTPLEYKNVPNAIFSNGKAVYDNNDFAAKQNKFDNSIDDNIEEANDTVISDANAKGSIYRFVAEDARSWKTMRATAPKVSDLKKTMNEKNIPNNMKRDGSFRGSQSVKSRVTNITFLLNELKTFSDDANKIKDPDEENIVGLDKIDVARSNSLRLAPISSLSDRSSIGNRKSFLQKTATGENQNDDFKDANEDLHSLSSRGKIFSST
For the molecule B2, the binding entry in assay [3] was “binds”.

B3: nascent Aim44 (ribosome-bound nascent chain) (protein, UniProt Q99299 1-758)
chain: MIIRAPIRTKTKSFRGDQMDFKFPSNESLPRGTLEEYHLNNHHLLNDVFAAENGVSRDEDGNSQTLSDYTSTSNTNTNSGYSSNGYYSFANISDNTTSSPRIVINQNETARLTSSDSNKSDFFASHDFPGNDSLHYSSSNVVKNQLHSMEAIPEGNITGSISTAFQTIPTADNVSYDIAPSSASSLLPRKSTSKSAILPSTQEAKPMTKLNMEKDIKTIELNNSVVPKPKKKLNRVPTIRRVESSRFSNSRYSSSVSSKSSSSRCSLKRSKAIRCKGGLLYYFTSLGIKIKKKLRKLRLVLRRRLFSYNVQKVPSATNSKTTKSKANINNKSKKRGTNLVNKNSNSTPRQKKSQRYVSNLQRSISSKSLVPVLAPQKKTKPLTVDTKFKANHPQSEDSKVGSNTPRSPLVSYTPSLRRTNSSIRRAASILTASATMTPANNKNSFISVPDNVSHAVTRNSSMYSRSRLVRSKPSTALNAIARQPSIVVENKVIPLSMNRYSIKEEDEYVIDTSSMRELSPVNSVCSSDYDRESSESYSNYADAMETTEVDNKDRVECNNEIQNVDANNEETSNEESYNLMKHYLSTVIAQRIMLRVQIARIQNYKSNVVYMNKSAETNSTIYEDLVDSLLTEYEADGSSSQIFDGVTVRADEEEEEDEDDEDDEEEEEENDDEEDEEDEEDDEDDEEEEEKRKEGEGRNLAKEVDELAELSPMRKQSDLSITLRSPFAMLNPAYSNSIISLPTGVVKRSLTLPVGMKI
Turning to B3, the binding entry in assay [1] was “binds”.
